From publication PMC7819943, “Rice protein-binding microarrays: a tool to detect cis-acting elements near promoter regions in rice”
The list shows a part of the results.

molecular target: T1, OsSMF1 (Oryza sativa, UniProt Q6ZLB0 1-436); experiment: protein-binding microarray (RPBM); PBS, 2% BSA, 51.3 ng/ul salmon testes DNA, 50 uM zinc acetate, 200 nM TF, 25 C, 1 h; high values mean tight binding; conditions: protein: recombinant; tags: N-terminal polyhistidine and DsRed monomer fusion (pET32a); chain copies: 2; label: CyDye5-dUTP incorporated in the synthesized complementary strand; 3' TTTTT single-stranded linker to array surface; dsDNA, one strand shown
T1 sequence: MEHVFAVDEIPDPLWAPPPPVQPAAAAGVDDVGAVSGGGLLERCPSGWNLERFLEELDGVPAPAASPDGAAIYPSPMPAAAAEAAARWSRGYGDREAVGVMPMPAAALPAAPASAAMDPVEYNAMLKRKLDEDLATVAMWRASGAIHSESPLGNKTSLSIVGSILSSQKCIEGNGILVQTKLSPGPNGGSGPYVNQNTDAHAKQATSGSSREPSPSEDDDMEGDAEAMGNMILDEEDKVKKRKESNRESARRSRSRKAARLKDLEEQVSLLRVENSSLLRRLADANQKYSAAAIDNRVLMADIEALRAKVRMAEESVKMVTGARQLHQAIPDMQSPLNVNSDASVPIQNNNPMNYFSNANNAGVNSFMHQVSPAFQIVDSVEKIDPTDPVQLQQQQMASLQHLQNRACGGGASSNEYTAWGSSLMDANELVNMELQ
In short: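 In PBS with 2% BSA, salmon testes DNA and 50 µM zinc acetate, 200 nM protein was incubated on a custom Agilent array at 25 °C for 1 h and then washed off. The array had been made double-stranded by primer extension with Cy5-dUTP and blocked with 2% BSA. The proteins were transcription factors fused N-terminally to polyhistidine and DsRed, expressed in E. coli BL21-CodonPlus and purified on Ni–NTA. The binding signal is per-feature fluorescence intensity (arbitrary units) from an Axon 4000B scanner.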

Sequence | binding signal
AAGGTTTTACTGACATGACGTTGACGTAGCGGTGTTGACCCGGAGTCACCTAGTGCAG | 8530 fluorescence intensity (a.u.)
TCCCTGTAACCGTACTGCACATCACGTCATCCATTTAAGACGGAGTCACCTAGTGCAG | 6780 fluorescence intensity (a.u.)
TAGAGGGGCATATTCGACCATTCGTCACGTCACCAGCTAGCGGAGTCACCTAGTGCAG | 8470 fluorescence intensity (a.u.)
GGCGGGGTGGCTGTTGTCGACGTCGTGGTGGTCGGCGTCGCGGAGTCACCTAGTGCAG | 3910 fluorescence intensity (a.u.)
ATGGCCCATTGGGCTTTCCACGGTGGTGGAATATTCCACCCGGAGTCACCTAGTGCAG | 3780 fluorescence intensity (a.u.)
TTACTACACGGATCGCGGTCACGTCACGTGGTCCATAGTCCGGAGTCACCTAGTGCAG | 6690 fluorescence intensity (a.u.)
TTGGATGCTTCTTGACTCACCCACACATTTGCATCGAACCCGGAGTCACCTAGTGCAG | 3840 fluorescence intensity (a.u.)
ATGATAACTTTTATGGTTTTGGCCGTCTGGGGATCGGAATCGGAGTCACCTAGTGCAG | 65500 fluorescence intensity (a.u.)
TTCTTTCTTTCTTTCTTCTTTCCCTGTTCTGTCTTTCTTCCGGAGTCACCTAGTGCAG | 3480 fluorescence intensity (a.u.)
GGGATGTCACACCGTCGAAGGCGTCCAGCTGTCAACATATCGGAGTCACCTAGTGCAG | 4720 fluorescence intensity (a.u.)
CAACTTTGCCGGCTGCCGATGACTGCCAACAACTCGGCCGCGGAGTCACCTAGTGCAG | 4380 fluorescence intensity (a.u.)
TGGTGGTAGTGTGTGTTGGTGTCATAAATACTAAATAAGACGGAGTCACCTAGTGCAG | 3460 fluorescence intensity (a.u.)
TGATGGGCTCGTGGACCGATGACTCAGACCACGGTCGCCCCGGAGTCACCTAGTGCAG | 15400 fluorescence intensity (a.u.)
ACACACACAGTCACACGTACGCTAGCTCGATCGTTAGCTGCGGAGTCACCTAGTGCAG | 6070 fluorescence intensity (a.u.)
CATCCCCTCCCGCCACGTCCGCAACCGCAGCCACCACCACCGGAGTCACCTAGTGCAG | 10700 fluorescence intensity (a.u.)
AATTGCTCCTCCGGTTCGTGACGTCGCCGATGGTGGACGCCGGAGTCACCTAGTGCAG | 7280 fluorescence intensity (a.u.)
GGAAACGGTGAATAGTGCACTGCAAATCACGCCCAAATTGCGGAGTCACCTAGTGCAG | 3160 fluorescence intensity (a.u.)
GGGGTGAGAAGAGTGGATGAAGATGGTTATCGGCGTGACTCGGAGTCACCTAGTGCAG | 4800 fluorescence intensity (a.u.)
GCCTACAAATGATGTGTTCTGTGTACCGACGTTTTGCCAACGGAGTCACCTAGTGCAG | 5200 fluorescence intensity (a.u.)
AAGTGATCTTATTCCTTCGGCGCTCGTTTGCAGGTTTCCTCGGAGTCACCTAGTGCAG | 30600 fluorescence intensity (a.u.)
TTTATTGATAATAATAATCCAGATTTAATTTAATATTTTACGGAGTCACCTAGTGCAG | 3760 fluorescence intensity (a.u.)

Sequence | binding signal
GCCGCCACCACTTAGCCTCGCCGCCAGCTGCCTCCCCGCTCGGAGTCACCTAGTGCAG | 3170 fluorescence intensity (a.u.)
CTAGCCGTGTCCGCCTCTGCCACGCCACCACGACACGAGTCGGAGTCACCTAGTGCAG | 9600 fluorescence intensity (a.u.)
CACACCCGCGCGTGCCACGCACGTGCGCCCGCGCCGCCGTCGGAGTCACCTAGTGCAG | 8840 fluorescence intensity (a.u.)
AAGCGGGAGGTGGTGGAGGGGAGGTCGGCCGCCGTGCCCTCGGAGTCACCTAGTGCAG | 3400 fluorescence intensity (a.u.)
CAACTCGTACAGTACGTAGTATTAGGCCTATCCACCTATGCGGAGTCACCTAGTGCAG | 3350 fluorescence intensity (a.u.)
TTGGCAAGCGCGCGTCACCTACTCAGCAGCCTGAGCCGCCCGGAGTCACCTAGTGCAG | 5370 fluorescence intensity (a.u.)
CATGCCCTCGTCTCTCTATCCTACGTGGCGGTGCTGATGGCGGAGTCACCTAGTGCAG | 23100 fluorescence intensity (a.u.)
TGTGCTCGCCCGGGACGCGTGCCGCGGGACGTCACGCACGCGGAGTCACCTAGTGCAG | 3240 fluorescence intensity (a.u.)
CGCCGCCCAGGGCGCAGCGGACGATGCTGGTGGTGGCGGGCGGAGTCACCTAGTGCAG | 3650 fluorescence intensity (a.u.)
GAGCCACGGTGGAAGGGTATAATCGTAATTTCGCGTATGGCGGAGTCACCTAGTGCAG | 3370 fluorescence intensity (a.u.)
GCACTTTCTCATAATGAACTATAGAGACGTGGAGTTGGGTCGGAGTCACCTAGTGCAG | 3910 fluorescence intensity (a.u.)
GTATTCGAGCTATCCATATTCATTTTCATATCTGGTAAAACGGAGTCACCTAGTGCAG | 19000 fluorescence intensity (a.u.)
TACAGCGTCCTGTTTGTTTGTGTTGGGGCGTGGCAGTGTCCGGAGTCACCTAGTGCAG | 4690 fluorescence intensity (a.u.)
AACCGCTTTTGTCTTCTCCAGCTCAGCTCGTCTTCTCCGCCGGAGTCACCTAGTGCAG | 7370 fluorescence intensity (a.u.)
CGAGTTTCTCACATCAGGTCTGTCATTTGCCGTGGTATGCCGGAGTCACCTAGTGCAG | 3460 fluorescence intensity (a.u.)
AAATACACTAAACGCGACCAAAACGTGTCGATGTCTCGATCGGAGTCACCTAGTGCAG | 4220 fluorescence intensity (a.u.)
GGGGCGGCCCGGCCCGTGTCCACGTAAGCAAACGCACGCTCGGAGTCACCTAGTGCAG | 24500 fluorescence intensity (a.u.)
CGGAGACCTGCGCGCTCGACCTCATCGACGCCACGTACGACGGAGTCACCTAGTGCAG | 8340 fluorescence intensity (a.u.)
GTCTGGAGAGCCAGAGGAGAGGAGTAGCGGACGCGGTGCCCGGAGTCACCTAGTGCAG | 26700 fluorescence intensity (a.u.)
CCAGCTCCACGTTGGATTAGATCTGGGTTGAAAATCTCGTCGGAGTCACCTAGTGCAG | 5270 fluorescence intensity (a.u.)
TTGTGATGTATCATACCATGCATTTCAAATATCAGTTCAACGGAGTCACCTAGTGCAG | 3710 fluorescence intensity (a.u.)

Single entries from the list:
TTGGATGCTTCTTGACTCACCCACACATTTGCATCGAACCCGGAGTCACCTAGTGCAG | binding signal: 3840 fluorescence intensity (a.u.)
GCCGCCACCACTTAGCCTCGCCGCCAGCTGCCTCCCCGCTCGGAGTCACCTAGTGCAG | binding signal: 3170 fluorescence intensity (a.u.)
